Test results taken from the supplement of paper PMC12823440, “Inhibitors supercharge kinase turnover through native proteolytic circuits” (Nature, 2025).
Counter-ions that a name gives are not always drawn. The list shows a part of the results. Hit calls seldom repeat between salt and free forms of one compound.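 Kinases, fused to nanoluciferase, were expressed in K562 cells; luminescence was measured every 4 h from 2 to 18 h as percent of control (DMSO = 100%, positive control = 0%). A time point is decreased if signal falls significantly (2 sigma). Hits were called by the authors by a rule that is not shown; the count of time points alone does not decide it.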

By UniProt entry, the sequences of proteins in these tests, tags left out.
UniProt P29317, whole entry: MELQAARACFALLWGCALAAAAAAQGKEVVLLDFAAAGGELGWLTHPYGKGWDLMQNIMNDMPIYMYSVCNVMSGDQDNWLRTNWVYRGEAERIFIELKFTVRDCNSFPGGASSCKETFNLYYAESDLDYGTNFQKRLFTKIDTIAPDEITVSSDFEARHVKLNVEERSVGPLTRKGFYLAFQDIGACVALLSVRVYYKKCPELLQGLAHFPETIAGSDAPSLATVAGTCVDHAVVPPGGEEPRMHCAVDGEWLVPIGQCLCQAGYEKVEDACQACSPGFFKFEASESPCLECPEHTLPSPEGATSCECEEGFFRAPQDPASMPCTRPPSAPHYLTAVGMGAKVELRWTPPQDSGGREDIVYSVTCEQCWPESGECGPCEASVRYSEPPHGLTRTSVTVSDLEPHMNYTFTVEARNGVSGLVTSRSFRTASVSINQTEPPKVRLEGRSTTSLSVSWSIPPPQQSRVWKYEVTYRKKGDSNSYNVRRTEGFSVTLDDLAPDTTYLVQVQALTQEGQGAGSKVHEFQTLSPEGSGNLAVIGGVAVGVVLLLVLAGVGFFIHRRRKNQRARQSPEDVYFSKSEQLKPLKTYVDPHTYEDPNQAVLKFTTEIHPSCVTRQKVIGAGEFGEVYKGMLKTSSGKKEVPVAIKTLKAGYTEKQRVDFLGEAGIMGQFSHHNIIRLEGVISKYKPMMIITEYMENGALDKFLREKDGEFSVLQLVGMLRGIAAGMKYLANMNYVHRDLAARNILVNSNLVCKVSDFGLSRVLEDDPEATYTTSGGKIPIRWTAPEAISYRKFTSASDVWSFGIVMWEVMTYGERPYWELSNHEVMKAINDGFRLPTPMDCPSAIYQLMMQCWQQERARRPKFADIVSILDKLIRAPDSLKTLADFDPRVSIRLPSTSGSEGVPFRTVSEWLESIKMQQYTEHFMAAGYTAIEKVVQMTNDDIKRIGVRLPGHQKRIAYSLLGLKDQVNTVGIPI
UniProt P21860, whole entry: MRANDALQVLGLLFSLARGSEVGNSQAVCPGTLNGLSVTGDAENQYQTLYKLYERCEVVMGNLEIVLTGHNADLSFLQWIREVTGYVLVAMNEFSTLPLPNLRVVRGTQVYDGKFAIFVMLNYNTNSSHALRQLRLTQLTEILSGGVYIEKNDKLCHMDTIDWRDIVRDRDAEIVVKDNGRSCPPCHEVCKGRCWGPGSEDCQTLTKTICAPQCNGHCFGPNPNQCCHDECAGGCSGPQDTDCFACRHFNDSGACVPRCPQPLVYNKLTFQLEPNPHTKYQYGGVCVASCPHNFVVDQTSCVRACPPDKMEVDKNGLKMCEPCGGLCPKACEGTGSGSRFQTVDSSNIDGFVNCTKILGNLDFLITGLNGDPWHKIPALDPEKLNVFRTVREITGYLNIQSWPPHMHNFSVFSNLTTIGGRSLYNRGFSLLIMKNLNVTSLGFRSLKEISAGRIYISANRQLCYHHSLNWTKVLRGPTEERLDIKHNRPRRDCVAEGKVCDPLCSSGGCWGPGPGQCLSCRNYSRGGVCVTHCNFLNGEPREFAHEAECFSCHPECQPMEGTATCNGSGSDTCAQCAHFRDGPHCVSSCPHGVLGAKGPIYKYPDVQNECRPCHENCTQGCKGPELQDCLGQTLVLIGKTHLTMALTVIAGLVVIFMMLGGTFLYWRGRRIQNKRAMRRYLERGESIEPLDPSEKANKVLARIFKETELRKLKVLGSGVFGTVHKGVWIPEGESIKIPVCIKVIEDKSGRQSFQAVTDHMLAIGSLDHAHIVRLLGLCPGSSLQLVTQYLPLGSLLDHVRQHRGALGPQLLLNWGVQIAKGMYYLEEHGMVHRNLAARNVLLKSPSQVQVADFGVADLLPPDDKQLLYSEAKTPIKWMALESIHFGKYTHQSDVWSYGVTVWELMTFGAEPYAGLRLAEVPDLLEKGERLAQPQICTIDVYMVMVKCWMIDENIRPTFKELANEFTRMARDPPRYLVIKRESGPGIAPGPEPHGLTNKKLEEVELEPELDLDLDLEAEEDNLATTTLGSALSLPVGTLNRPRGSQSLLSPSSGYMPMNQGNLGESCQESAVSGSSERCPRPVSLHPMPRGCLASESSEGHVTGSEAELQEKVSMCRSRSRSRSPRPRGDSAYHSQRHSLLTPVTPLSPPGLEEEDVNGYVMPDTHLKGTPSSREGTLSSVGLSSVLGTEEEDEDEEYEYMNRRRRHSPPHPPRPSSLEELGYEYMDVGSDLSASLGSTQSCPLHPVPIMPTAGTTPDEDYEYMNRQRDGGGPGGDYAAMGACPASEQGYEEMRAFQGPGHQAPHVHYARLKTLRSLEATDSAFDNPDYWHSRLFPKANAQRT
UniProt Q15303, whole entry R711C: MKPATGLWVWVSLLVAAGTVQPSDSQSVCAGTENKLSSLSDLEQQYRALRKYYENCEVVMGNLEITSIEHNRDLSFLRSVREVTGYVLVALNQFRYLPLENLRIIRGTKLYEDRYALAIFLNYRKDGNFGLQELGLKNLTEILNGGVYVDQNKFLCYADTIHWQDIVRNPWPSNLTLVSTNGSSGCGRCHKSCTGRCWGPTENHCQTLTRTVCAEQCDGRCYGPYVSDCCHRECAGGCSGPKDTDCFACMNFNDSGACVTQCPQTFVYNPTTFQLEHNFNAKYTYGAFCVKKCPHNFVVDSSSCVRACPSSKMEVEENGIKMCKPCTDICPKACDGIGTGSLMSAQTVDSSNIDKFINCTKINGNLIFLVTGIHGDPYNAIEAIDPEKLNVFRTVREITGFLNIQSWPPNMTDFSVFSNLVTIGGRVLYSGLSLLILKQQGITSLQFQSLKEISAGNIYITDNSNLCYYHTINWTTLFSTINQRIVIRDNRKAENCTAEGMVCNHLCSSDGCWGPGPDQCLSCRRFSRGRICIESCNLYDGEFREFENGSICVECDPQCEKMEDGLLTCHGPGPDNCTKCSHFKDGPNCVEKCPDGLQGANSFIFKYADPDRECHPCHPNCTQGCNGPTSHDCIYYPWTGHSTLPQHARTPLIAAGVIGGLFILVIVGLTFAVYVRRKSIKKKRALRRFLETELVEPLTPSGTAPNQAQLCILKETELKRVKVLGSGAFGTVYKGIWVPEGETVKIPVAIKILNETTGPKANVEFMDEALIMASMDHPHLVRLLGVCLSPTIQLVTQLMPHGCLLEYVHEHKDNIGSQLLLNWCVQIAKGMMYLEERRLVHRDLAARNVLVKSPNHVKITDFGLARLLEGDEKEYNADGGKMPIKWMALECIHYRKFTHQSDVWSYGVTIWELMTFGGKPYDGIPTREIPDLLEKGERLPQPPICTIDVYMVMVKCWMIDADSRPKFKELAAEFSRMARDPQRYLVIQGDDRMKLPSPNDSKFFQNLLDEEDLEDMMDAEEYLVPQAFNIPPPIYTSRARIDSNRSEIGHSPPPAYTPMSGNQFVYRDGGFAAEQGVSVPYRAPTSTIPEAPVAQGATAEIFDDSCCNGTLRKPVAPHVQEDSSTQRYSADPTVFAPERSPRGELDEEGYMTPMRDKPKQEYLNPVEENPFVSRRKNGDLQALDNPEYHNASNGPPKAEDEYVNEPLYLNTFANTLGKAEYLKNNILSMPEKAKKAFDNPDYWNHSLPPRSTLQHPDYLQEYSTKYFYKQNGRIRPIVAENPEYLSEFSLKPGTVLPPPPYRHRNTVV

Columns and labels:
Experiment in all cases: kinase-Nluc reporter destabilization hit call (1 = scored as downregulated) (binary); higher = compound decreases kinase abundance
Details in all cases: K562; 2-18 h
EGFR = EGFR (UniProt P00533)
EGFR_G719S = EGFR_G719S (UniProt P00533)
EGFR_G719S_T790M = EGFR_G719S_T790M (UniProt P00533)
EGFR_L718V = EGFR_L718V (UniProt P00533)
EGFR_L858R = EGFR_L858R (UniProt P00533)
EGFR_L861Q = EGFR_L861Q (UniProt P00533)
EGFR_T790M = EGFR_T790M (UniProt P00533)
EPHA2 = EPHA2 (UniProt P29317)
ERBB3 = ERBB3 (UniProt P21860)
[1] = molecular target: ERBB4_R711C (clone: ERBB4_mut) (UniProt Q15303)

Row | SMILES | kinase-Nluc reporter destabilization hit call (EGFR) | kinase-Nluc reporter destabilization hit call (EGFR_G719S) | kinase-Nluc reporter destabilization hit call (EGFR_G719S_T790M) | kinase-Nluc reporter destabilization hit call (EGFR_L718V) | kinase-Nluc reporter destabilization hit call (EGFR_L858R) | kinase-Nluc reporter destabilization hit call (EGFR_L861Q) | kinase-Nluc reporter destabilization hit call (EGFR_T790M) | kinase-Nluc reporter destabilization hit call (EPHA2) | kinase-Nluc reporter destabilization hit call (ERBB3) | kinase-Nluc reporter destabilization hit call [1]
1 | CC(C)Oc1cc(Nc2nc(N[C@@H](C)c3ccc(F)cn3)ncc2Cl)n[nH]1 (10 µM) | inactive: 0 | inactive: 0 | inactive: 0 | inactive: 0 | inactive: 0 | inactive: 0 | inactive: 0 | inactive: 0 | inactive: 0 | inactive: 0
2 | Cc1cc(F)c(C(=O)Nc2cccc(-c3nncn3C(C)C)n2)cc1-n1cnc(C2CC2)c1 [Selonsertib] (10 µM) | inactive: 0 | inactive: 0 | inactive: 0 | inactive: 0 | inactive: 0 | inactive: 0 | inactive: 0 | inactive: 0 | inactive: 0 | inactive: 0
3 | O=C1NC(=NCc2cccs2)S/C1=C\c1ccc2ncccc2c1 (10 µM) | inactive: 0 | inactive: 0 | inactive: 0 | inactive: 0 | inactive: 0 | inactive: 0 | inactive: 0 | inactive: 0 | inactive: 0 | inactive: 0
4 | COc1cc(CCc2cc(-c3nc4ccc(N5CCN(C)CC5)cc4[nH]3)n[nH]2)cc(OC)c1 (10 µM) | inactive: 0 | inactive: 0 | inactive: 0 | inactive: 0 | inactive: 0 | inactive: 0 | inactive: 0 | inactive: 0 | active: 1 | inactive: 0
5 | CCn1c(=O)c2cc(C(N)=O)c(N)nc2n(C2CC2)c1=O (10 µM) | inactive: 0 | inactive: 0 | inactive: 0 | inactive: 0 | inactive: 0 | inactive: 0 | inactive: 0 | inactive: 0 | inactive: 0 | inactive: 0
6 | COc1cc(Oc2ccnc3cc(OC)c(OC)cc23)ccc1NC(=O)NC(C)c1nccs1 (stereo not given) (2.5 µM) | inactive: 0 | inactive: 0 | inactive: 0 | inactive: 0 | inactive: 0 | inactive: 0 | inactive: 0 | inactive: 0 | inactive: 0 | inactive: 0
7 | CC(C)(C#N)c1ccc(N2C(=O)OCc3cnc4ccc(-c5cnc6ccccc6c5)cc4c32)cc1 (2.5 µM) | inactive: 0 | inactive: 0 | inactive: 0 | inactive: 0 | inactive: 0 | inactive: 0 | inactive: 0 | inactive: 0 | inactive: 0 | inactive: 0
8 | COc1ccc(COc2ccc(Cc3cnc(N)nc3N)cc2OC)cc1 (10 µM) | inactive: 0 | inactive: 0 | inactive: 0 | inactive: 0 | inactive: 0 | inactive: 0 | inactive: 0 | inactive: 0 | inactive: 0 | inactive: 0
9 | O=c1cc(-c2ccccc2)oc2c(O)c(O)ccc12 [7,8-Dihydroxyflavone] (10 µM) | inactive: 0 | inactive: 0 | inactive: 0 | inactive: 0 | inactive: 0 | inactive: 0 | inactive: 0 | inactive: 0 | inactive: 0 | inactive: 0
10 | CCN1CCN(Cc2ccc(C(=O)Nc3ccc(C)c(Oc4ccc5c(c4)CC(=O)N5)c3)cc2C(F)(F)F)CC1 (2.5 µM) | inactive: 0 | inactive: 0 | inactive: 0 | inactive: 0 | inactive: 0 | inactive: 0 | inactive: 0 | inactive: 0 | inactive: 0 | inactive: 0
11 | COc1cc2ncnc(Nc3cccc(Cl)c3F)c2cc1OC(=O)N1CCN(C)C[C@H]1C [Zorifertinib] (10 µM) | inactive: 0 | inactive: 0 | inactive: 0 | inactive: 0 | inactive: 0 | inactive: 0 | inactive: 0 | inactive: 0 | inactive: 0 | inactive: 0
12 | Cn1nc(C(C)(C)C)cc1NC(=O)Nc1ccc(Oc2ccncc2)cc1 (10 µM) | inactive: 0 | inactive: 0 | inactive: 0 | inactive: 0 | inactive: 0 | inactive: 0 | inactive: 0 | inactive: 0 | inactive: 0 | inactive: 0
13 | COc1cc(C(=O)NC2CCN(C)CC2)c(F)cc1Nc1ncc2c(n1)N(C1CCCC1)CC(F)(F)C(=O)N2C [TAK-960 (dihydrochloride)] (2.5 µM) | inactive: 0 | inactive: 0 | inactive: 0 | inactive: 0 | inactive: 0 | inactive: 0 | inactive: 0 | inactive: 0 | inactive: 0 | inactive: 0
14 | NC(=O)c1ccc2nc(-c3ccc(Oc4ccc(Cl)cc4)cc3)[nH]c2c1 (10 µM) | inactive: 0 | inactive: 0 | inactive: 0 | inactive: 0 | inactive: 0 | inactive: 0 | inactive: 0 | inactive: 0 | inactive: 0 | inactive: 0
